# Test results: article PMC10415273
# Protein sequences, listed by entry. Tags and fused reporters are not part of them.
# UniProt Q7Z434: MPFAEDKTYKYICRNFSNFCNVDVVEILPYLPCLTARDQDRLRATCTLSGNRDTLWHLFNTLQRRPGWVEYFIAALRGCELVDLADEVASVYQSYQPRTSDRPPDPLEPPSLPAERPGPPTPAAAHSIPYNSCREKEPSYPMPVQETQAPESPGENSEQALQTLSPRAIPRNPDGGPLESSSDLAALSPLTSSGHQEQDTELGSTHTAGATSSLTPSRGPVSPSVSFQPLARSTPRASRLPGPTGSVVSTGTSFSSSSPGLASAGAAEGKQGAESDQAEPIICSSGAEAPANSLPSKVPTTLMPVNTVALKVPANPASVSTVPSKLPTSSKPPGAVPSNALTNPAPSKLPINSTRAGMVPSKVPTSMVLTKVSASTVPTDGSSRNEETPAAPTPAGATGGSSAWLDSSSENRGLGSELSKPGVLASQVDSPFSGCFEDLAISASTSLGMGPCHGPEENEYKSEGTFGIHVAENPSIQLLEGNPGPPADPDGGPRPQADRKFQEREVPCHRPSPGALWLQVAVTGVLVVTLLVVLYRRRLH
# UniProt O00463: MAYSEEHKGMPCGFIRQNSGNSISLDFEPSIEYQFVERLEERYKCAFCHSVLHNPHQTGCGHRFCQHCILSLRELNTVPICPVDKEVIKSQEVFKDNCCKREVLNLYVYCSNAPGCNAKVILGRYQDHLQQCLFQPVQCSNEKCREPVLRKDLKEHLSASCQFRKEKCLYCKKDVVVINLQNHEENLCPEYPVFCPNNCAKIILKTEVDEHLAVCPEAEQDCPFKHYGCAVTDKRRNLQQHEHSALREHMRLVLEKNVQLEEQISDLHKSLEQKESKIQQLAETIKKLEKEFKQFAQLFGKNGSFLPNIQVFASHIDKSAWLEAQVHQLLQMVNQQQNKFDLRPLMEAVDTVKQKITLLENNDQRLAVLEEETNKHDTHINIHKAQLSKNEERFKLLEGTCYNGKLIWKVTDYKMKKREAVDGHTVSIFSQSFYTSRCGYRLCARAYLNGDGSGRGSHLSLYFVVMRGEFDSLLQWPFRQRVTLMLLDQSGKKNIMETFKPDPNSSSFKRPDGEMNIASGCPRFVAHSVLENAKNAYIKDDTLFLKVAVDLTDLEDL
# UniProt O14744: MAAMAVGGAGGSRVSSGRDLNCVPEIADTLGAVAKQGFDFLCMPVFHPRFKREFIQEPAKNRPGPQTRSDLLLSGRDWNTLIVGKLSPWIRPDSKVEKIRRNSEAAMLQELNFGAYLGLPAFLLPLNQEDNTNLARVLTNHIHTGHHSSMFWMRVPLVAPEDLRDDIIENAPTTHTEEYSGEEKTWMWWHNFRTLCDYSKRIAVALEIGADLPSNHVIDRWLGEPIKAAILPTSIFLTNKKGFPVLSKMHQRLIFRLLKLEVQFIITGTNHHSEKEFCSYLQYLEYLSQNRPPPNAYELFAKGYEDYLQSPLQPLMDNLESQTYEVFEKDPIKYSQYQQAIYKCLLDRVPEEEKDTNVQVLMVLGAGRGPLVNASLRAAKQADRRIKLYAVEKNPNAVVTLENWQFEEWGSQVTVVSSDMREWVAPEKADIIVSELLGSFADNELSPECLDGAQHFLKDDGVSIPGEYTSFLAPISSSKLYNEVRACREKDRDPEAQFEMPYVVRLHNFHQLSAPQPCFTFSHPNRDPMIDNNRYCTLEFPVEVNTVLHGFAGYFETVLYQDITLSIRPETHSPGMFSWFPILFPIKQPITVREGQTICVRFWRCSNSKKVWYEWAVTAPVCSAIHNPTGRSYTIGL
# UniProt Q9BQA1: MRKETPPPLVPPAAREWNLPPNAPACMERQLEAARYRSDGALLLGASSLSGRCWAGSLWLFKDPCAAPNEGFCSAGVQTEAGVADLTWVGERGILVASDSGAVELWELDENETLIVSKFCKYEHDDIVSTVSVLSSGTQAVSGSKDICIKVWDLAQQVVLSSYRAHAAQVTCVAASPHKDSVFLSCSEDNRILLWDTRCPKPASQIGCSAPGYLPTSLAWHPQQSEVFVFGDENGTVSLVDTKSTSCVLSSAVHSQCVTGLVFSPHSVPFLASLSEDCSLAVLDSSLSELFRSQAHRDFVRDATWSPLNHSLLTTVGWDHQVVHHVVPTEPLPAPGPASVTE
# No constants are given. Whether binding was seen depends on the method and setting. Binding seen in cells or lysates may run through a third protein. Some entries that bind do so weakly or less than the wild type.
# Key:
# HA-MAVS (human) = HA-MAVS (human) (UniProt Q7Z434); experiment: co-IP; HEK293T co-transfected with tagged plasmids, harvested 36 h after transfection (with or without SeV); IP buffer with 1% Triton X-100; anti-FLAG M2 affinity gel or anti-HA agarose, 4 h at 4 °C; immunoblot
# TRAF5 = TRAF5 (UniProt O00463); experiment: as above
# TRAF2 = biological target: T1, TRAF2 (UniProt Q12933); experiment: as above
# T1 sequence: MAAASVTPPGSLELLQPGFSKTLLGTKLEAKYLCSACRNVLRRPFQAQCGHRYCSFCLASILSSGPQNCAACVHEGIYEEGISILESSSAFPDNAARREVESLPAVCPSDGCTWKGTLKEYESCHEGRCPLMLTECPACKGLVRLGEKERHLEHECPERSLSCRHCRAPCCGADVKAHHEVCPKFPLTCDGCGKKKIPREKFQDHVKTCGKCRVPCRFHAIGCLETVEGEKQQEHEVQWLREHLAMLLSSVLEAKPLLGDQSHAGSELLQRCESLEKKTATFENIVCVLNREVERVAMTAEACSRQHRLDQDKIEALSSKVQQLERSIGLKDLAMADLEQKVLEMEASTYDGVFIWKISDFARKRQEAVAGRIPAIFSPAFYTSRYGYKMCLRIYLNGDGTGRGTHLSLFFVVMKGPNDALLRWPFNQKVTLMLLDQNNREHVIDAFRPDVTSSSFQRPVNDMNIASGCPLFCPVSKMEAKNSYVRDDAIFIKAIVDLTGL
# RIG-I (human) = biological target: T2, RIG-I (human) (UniProt O95786); experiment: as above
# T2 sequence: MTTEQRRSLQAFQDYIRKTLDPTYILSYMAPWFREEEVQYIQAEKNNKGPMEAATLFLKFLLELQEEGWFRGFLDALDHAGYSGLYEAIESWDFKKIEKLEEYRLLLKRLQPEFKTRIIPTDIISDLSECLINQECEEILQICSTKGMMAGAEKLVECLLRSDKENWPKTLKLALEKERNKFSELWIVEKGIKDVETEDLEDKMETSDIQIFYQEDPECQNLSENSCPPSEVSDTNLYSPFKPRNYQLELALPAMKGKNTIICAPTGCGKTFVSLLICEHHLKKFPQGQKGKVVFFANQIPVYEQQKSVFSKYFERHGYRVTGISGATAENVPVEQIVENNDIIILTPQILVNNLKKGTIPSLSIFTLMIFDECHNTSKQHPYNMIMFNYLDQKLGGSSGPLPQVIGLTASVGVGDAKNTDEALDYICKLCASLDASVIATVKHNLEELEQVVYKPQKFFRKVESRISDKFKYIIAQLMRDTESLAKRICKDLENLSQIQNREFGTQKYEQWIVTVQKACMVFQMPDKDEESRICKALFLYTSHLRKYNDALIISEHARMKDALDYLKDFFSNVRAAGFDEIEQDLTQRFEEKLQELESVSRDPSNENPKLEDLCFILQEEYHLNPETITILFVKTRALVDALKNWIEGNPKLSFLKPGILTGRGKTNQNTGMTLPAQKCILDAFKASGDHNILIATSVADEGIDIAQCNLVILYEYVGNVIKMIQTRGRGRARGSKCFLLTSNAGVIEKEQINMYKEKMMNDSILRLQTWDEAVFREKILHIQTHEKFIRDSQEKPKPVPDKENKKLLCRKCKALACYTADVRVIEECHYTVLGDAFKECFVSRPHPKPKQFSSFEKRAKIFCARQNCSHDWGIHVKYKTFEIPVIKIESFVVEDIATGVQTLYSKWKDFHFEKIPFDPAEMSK
# TBK1 (human) = biological target: T3, TBK1 (human) (UniProt Q9UHD2); experiment: as above
# T3 sequence: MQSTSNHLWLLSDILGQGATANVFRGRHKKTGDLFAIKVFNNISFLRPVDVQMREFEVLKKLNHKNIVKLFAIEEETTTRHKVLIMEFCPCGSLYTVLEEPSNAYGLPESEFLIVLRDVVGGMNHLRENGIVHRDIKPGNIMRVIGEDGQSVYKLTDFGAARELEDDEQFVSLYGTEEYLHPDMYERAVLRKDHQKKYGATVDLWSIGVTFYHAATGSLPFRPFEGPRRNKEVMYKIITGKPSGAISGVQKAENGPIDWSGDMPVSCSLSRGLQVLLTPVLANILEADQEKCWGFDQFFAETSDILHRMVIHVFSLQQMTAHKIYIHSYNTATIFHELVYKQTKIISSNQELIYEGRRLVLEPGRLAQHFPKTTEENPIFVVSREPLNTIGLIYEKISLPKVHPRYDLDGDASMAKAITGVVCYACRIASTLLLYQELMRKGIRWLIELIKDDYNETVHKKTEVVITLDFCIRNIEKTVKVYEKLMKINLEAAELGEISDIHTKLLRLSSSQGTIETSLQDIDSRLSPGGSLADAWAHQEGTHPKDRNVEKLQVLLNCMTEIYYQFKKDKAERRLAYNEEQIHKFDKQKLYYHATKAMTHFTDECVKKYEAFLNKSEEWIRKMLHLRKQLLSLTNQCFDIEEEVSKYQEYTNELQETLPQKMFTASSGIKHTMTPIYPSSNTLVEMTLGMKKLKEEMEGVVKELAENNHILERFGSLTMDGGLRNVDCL
# [1] = biological target: T4, endogenous MDA5 (human (endogenous in HEK293T)) (UniProt Q9BYX4); experiment: co-IP; endogenous proteins in HEK293T (WT or WDR77-/-) with or without SeV or VSV, time course 0-32 h; protein G Plus-agarose with 1 µg antibody, 4 h; immunoblot
# T4 sequence: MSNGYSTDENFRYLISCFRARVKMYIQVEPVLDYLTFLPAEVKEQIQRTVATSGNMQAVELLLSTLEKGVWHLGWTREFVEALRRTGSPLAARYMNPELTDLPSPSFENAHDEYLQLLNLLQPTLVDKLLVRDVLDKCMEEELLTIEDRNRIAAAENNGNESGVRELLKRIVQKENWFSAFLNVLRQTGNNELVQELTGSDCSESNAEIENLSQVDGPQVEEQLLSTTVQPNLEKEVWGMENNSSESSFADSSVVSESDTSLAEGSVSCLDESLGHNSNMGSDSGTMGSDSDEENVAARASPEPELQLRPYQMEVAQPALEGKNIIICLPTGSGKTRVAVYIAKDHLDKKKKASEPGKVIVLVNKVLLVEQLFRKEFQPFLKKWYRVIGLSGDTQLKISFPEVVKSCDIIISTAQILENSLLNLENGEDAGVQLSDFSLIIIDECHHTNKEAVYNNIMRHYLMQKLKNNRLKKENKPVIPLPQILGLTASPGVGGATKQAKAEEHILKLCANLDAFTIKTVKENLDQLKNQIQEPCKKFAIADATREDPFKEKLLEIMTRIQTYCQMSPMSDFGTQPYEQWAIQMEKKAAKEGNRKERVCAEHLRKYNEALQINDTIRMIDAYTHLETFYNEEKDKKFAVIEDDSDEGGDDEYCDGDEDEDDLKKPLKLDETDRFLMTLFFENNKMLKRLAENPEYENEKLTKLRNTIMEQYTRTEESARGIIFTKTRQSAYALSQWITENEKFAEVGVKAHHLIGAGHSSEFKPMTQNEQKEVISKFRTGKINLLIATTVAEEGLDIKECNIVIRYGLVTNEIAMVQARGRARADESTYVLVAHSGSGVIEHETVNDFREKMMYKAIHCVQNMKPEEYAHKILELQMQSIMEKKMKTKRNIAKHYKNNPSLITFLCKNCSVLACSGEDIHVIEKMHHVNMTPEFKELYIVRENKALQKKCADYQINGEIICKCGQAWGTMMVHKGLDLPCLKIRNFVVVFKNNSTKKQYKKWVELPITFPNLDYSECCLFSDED
# [2] = biological target: T5, endogenous RIG-I (human (endogenous in HEK293T)) (UniProt O95786); experiment: as above
# T5 sequence: T2 sequence
substance,measurement,setting,value
Flag-PRMT5 (from UniProt O14744 1-637),binding,HA-MAVS (human),binds
HA-WDR77 (from UniProt Q9BQA1 1-342),binding,TRAF5,no binding
same,binding,TRAF2,no binding
same,binding,RIG-I (human),no binding
same,binding,TBK1 (human),no binding
endogenous WDR77 (from UniProt Q9BQA1 1-342),binding,[1],no binding
same,binding,[2],no binding
